Assay results

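Luminescence from an EWS-FLI1 target-promoter (NR0B1) reporter, set against a CMV-promoter reporter, two days after silencing single genes in TC32 Ewing sarcoma cells.
Each siRNA was applied at 20 nM.
A z-score of the log NR0B1-over-CMV signal, less the median of siRNAs with the same seed; more negative means a stronger specific loss of the NR0B1 reporter.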

This is part of the screen; most of the strongest results are not listed here.
Sequences are the guide (antisense) strand, without overhang.

Sequence,gene,seed-corrected z-score
UAAAGUUCAAACUUCAAAG,CBLN3,0.3376
UACGGUGUCCACGAAUACC,RNASEH2A,-0.3229
AGAAUAACAGCACAAGCCU,ANKRD20A18P,-0.657
UGGUUCAUCAGCACUACGG,TCEA1,-0.4424
UUCCUCAUCAAAGUACCUC,CCDC97,1.036
UACCUAACUCAGGAGACCC,ELF2,-0.4335
UCCAUAUUUCUCUUGAUCC,ARHGAP12,0.06156
UUGAUGAGUAAGACAAUUG,NCOA4,-1.458
AUAGUCCUCACUAACAUCG,RPS6KL1,0.3953
UUAUCGAUAAAGAGGUUGC,SLC35A3,0.8683
UGAGGUGUAAGUAGUCAAC,POLG,-1.361
UAUUGAUAAUGUAGUAUCC,ANKH,-0.4583
UCCUGUAAGUCGUUAAACG,RAP1A,0.1378
AGCUUUAUUCUCUUGAUGC,MXD1,-1.922
UACUGUUCCAGGAUCAUGG,SH3PXD2A,1.41
UUUCCUCAGAUCGAAACGC,PRKAB2,0.0494
UUUCUGGUAAGCAAUGAAG,CD99,-1.065
UAAACAGUGGAAGAUAGCC,KCNMB3,1.204
AUAGUUUUCAGGGUGUUUA,GTF2IP3,0.4771
UGAUUGUUUCCGAUUUAUC,IQCK,0.4811
UAGGUAAUAUGUCUGACUG,ZNF765,-0.7323
AUACAUGACAUCUAGUUCC,VILL,0.1938
AAACCAAUUACUCAGAUAU,GEMIN2,-0.366
UUCUUAUAGGUAAUGCUGC,CCDC136,-0.02713
UCCAGUUUGCGCUUUUUGG,LMNA,-1.57
UACUUCUUCUUCAUACUUC,KRT83,-0.09089
UUUUUGACCACCAAGUCGA,HMCES,0.3204
UUGUUUGUUUGAGUGAAUC,RAD21-AS1,-0.1021
UCAGGAUCAGGGUUCAUGG,MORC2,-0.01699
UUCAGAGACAUCUUGCACU,IGFBP2,0.08442
UUGAUAUCGAAUAUUACCG,C18orf8,0.1093
UCAUCUAGUGGUUUAAUGG,LOC728815,-0.7776
UACGUUUGAAUCUCACAGC,OR2AK2,0.03185
UCCUGUGGAACAUCGUCUG,C2orf82,-0.604
AGAUGUUAAGUGGUCAUUC,GMNN,0.08066
AGAACUUUCACAGCUUUCC,LDLRAD3,0.4835
UUUCUGUCCAUUCUUGAGC,DYNAP,-0.6786
AACACUGCCGCAAACGUCG,MRPL28,0.2033
AUAGUCUUCAGCGCAAUCC,UNC13B,0.08858
UGGACAUUCAGGUAGGUGG,ORM1,0.2627
AAAGAUACUGUCUGCAUCC,OR9A2,-0.726
UUUUGAGCUGGUCUGAACG,WT1,0.2341
UGAGUUCCUAAGAAAUUUC,ADH1B,-0.09714
UAUGGUAAAUAAAGGACUG,VSTM5,-0.2172
UCAAAGACGAGUGCUCUGC,C16orf52,-1.695
UUAAUAUCCUUUGGGAAUG,TRMT61B,0.7352
UUGUCGAUCACCUUCAGGU,CBX6,-0.4095
UGUUUGAUGAGUGUUGAGC,ZNF774,-1.282
UCUUGGCCAUCUCUUCUCG,LRRC45,-0.2084
UGAAAGGCAAAUGUUAGCU,C9orf163,1.485
AAAUCGAUUAGAAUGGUGG,PPP2R3C,0.3955
UGAGGAACUCAGUCUGCGG,TRIM72,-1.365
UUUGAUGUAUUGUAAGCUG,ZNF7,-0.8257
UAUUGACCCGGGAUUAGCG,ZNF608,0.8103
AACCGCUUAAACACUUUGU,ZNF714,-0.02906
UCUUGCAUUACUAGAGAGG,NAA30,-0.4881
AUAACAUGAAGCAACGUGC,ERV3-1,2.764
AAUCGAAUAAUGGGAACAC,STAG1,1.157
AGAGUUUCCAUAUCUAAGC,MZT1,-1.967
GAAUCUUUGGCUGAAGUGC,WWP2,-0.5354
UAAAGGCGUAGUCCAUGGG,DMRTA2,0.1887
UUACUGAGGCCCAUCAUCG,FAM156A,-0.3318
UGAUGUUUCAGGAGAUUGG,ZFP41,-0.3567
UUACACUCGAAAAUCAGCG,EHMT2,0.1616
UAUUGUAUGAUUAGUGCAC,CD1B,0.4945
UCCAGUAGCAAUGAUGAUG,TXNRD2,-0.3762
UGAAAAUCCACAACGGUUC,TRAF3IP2-AS1,-0.8642
UGGAGGAACAUCAAUGUUG,ZNF704,-1.32
UUGCCCUUCAAAGCUUUCC,PSMA2,0.5457
UGCUCUAUGACUGAGGAGG,NR2F2,-0.7954
UUUAUCUGAAUCUUUAGUC,TRIM13,-0.4009
AUAGUAGUACCGCAAGGCC,ELK1,1.333
UUUGAUGCCCUGGUCAGUC,CAT,0.556
AAGUUCACAAUAUCUGGUC,RPL4,-0.8737
UAGUGGAUUCCGAAUAGUG,ADCYAP1R1,0.3938
UCCCGUCCUUCUUCUGAGC,HIST1H2BD,-0.3466
UGACUUAAAGAAGUCGUCC,PGD,0.4927
UGUAUCAUAAAAAGUCGCC,CIDEC,-0.2882
AACGUGAUAGUCAACUUGC,POLR1A,-0.4758
UCAUGGACAAGACGAGCAG,LOC649935,0.3983
AAAAUGUCUGGGCAUUAUC,CLDN11,0.183
UGCACUUACAGCUCUACCC,ADGB,0.08806

The last 7 entries again:

{"sequence": "UCCCGUCCUUCUUCUGAGC", "gene": "HIST1H2BD", "seed-corrected z-score": "-0.3466"}
{"sequence": "UGACUUAAAGAAGUCGUCC", "gene": "PGD", "seed-corrected z-score": "0.4927"}
{"sequence": "UGUAUCAUAAAAAGUCGCC", "gene": "CIDEC", "seed-corrected z-score": "-0.2882"}
{"sequence": "AACGUGAUAGUCAACUUGC", "gene": "POLR1A", "seed-corrected z-score": "-0.4758"}
{"sequence": "UCAUGGACAAGACGAGCAG", "gene": "LOC649935", "seed-corrected z-score": "0.3983"}
{"sequence": "AAAAUGUCUGGGCAUUAUC", "gene": "CLDN11", "seed-corrected z-score": "0.183"}
{"sequence": "UGCACUUACAGCUCUACCC", "gene": "ADGB", "seed-corrected z-score": "0.08806"}

From PubChem BioAssay record AID1159506 (NCATS, 2015).